According to patent publication US9993494B2, “Compositions and methods for treating fibrotic disease” (eFFECTOR Therapeutics, Inc., priority 2014, dated 2018):

How the values were obtained:
[1] = tested on: normal human lung fibroblasts; assay: Procollagen Type 1 C-Peptide (PIPC) EIA in culture media of TGFβ-treated fibroblasts; format: cell-based; conditions: 10 ng/ml TGFβ, 24 hours, FIG. 1; read-out: EC50 for blocking the TGFβ-induced increase in procollagen production
Experimental: Briefly, normal human lung fibroblasts (Lonza #CC-2512; cell passage numbers 2 through 5 were used for all experiments) were seeded (Day 0) and cultured in Dulbecco's modified Eagle medium (DMEM) supplemented with 10% fetal bovine serum (FBS), penicillin, streptomycin and glutamax (Invitrogen) at 37° C. in a humidified incubator with 5% CO2 overnight. On Day 1, cells were harvested, washed with phosphate buffered saline (PBS), and then incubated for 48 hours in fresh serum-free DMEM supplemented with penicillin, streptomycin, and glutamax.
After this 24 hour incubation, procollagen type 1 levels were measured by collecting culture media, centrifuging to pellet cellular debris, and stored at −80° C. Procollagen Type 1 C-Peptide (PIPC) was quantified using the (PIP) EIA kit (Clontech, Cat. No. MK101) according to manufacturer's instructions. The TGFβ-treated fibroblasts of this example were examined by ribosomal profiling (about 6×10^6 cells/10 cm plate) and western blot analysis (about 1×10^6 cells/well of a 6-well plate). […]
After this 24 hour incubation, procollagen type 1 levels were measured by collecting culture media, centrifuging to pellet cellular debris, and stored at −80° C. Procollagen Type 1 C-Peptide (PIPC) was quantified using the (PIP) EIA kit (Clontech) according to manufacturer's instructions. […]

[2] = tested on: normal human lung fibroblasts; assay: Ribosomal profiling: translational efficiency in TGFβ-treated fibroblasts; format: cell-based
Experimental: Ribosomal profiling allows for measurement of changes in transcription and translation on a genome-wide basis accompanying TGFβ-dependent transformation of fibroblasts to myofibroblasts. Ribosomal profiles of the TGFβ-treated fibroblasts from Example 1 (about 6×10^6 cells/10 cm plate) were prepared and analyzed for changes in translational efficiencies with respect to potential disease-associated cellular changes accompanying this TGFβ-induced transformation.
Briefly, cells were washed with cold PBS supplemented with cycloheximide and lysed with 1× mammalian cell lysis buffer for 10 minutes on ice. Lysates were clarified by centrifugation for 10 minutes at 14,000 rpm and supernatants were collected. Cell lysates were processed to generate ribosomal protected fragments and total mRNA according to the instructions included with the ARTseq Ribosome Profiling Kit (Illumina, San Diego, Calif.). Sequencing of total RNA (RNA) and of ribosome-protected fragments of RNA (RPF) was carried out using RNA-Seq methodology according to the manufacturer's instructions (Illumina). To analyze the ribosomal profiles, RNA-Seq reads were processed with tools from the FASTX-Toolkit (fastq_quality_trimmer, fastx_clipper and fastx_trimmer). Unprocessed and processed reads were evaluated for a variety of quality measures using FastQC, and processed reads were mapped to the human genome using TopHat (see, e.g., Trapnell et al., Bioinformatics 25:1105, 2009). Gene-by-gene assessment of the number of fragments strictly and uniquely mapping to the coding region of each gene was conducted using HTSeq-count, a component of the HTSeq package. […] Genes with low counts in either RPF or RNA were excluded from differential analyses. Pathway and network analyses of differential data were conducted using Ingenuity Pathway Analysis (IPA).

`CC(C)n1nc(-c2cc3cc(O)ccc3[nH]2)c2c(N)ncnc21` [PP242] was tested, and the EC50 [1] was ~200 nM, the “renormalizing the translational profile of KITLG” value ([2]; ENSG00000049130, TGFβ-treated fibroblasts) was “− (− = <0.9)” and the “renormalizing the translational profile of KDM2B” value ([2]; ENSG00000089094, TGFβ-treated fibroblasts) was “− (− = <0.9)”. For the same compound, the “renormalizing the translational profile of KDM6B” value ([2]; ENSG00000132510, TGFβ-treated fibroblasts) was “− (− = <0.9)”, the “renormalizing the translational profile of MICA” value ([2]; ENSG00000204520, TGFβ-treated fibroblasts) was “− (− = <0.9)” and the “translational efficiencies of procollagen and α-SMA” value ([2]; TGFβ and PP242 treatment) was “essentially independent”. The “number of genes whose translational efficiency was uniquely modulated by the compound” value ([2]; TGFβ-treated fibroblasts, duplicate ribosomal profiles) was “five”, the “mean increase in translational efficiency of all genes in the eIF2 pathway” value ([2]; fibroblasts treated with TGFβ and PP242 (TGFβ alone 0.65 log2)) was 0.09 log2 and the “mean increase in translational efficiency of the 12 eIF2 signaling pathway genes” value ([2]; fibroblasts treated with TGFβ and PP242 (TGFβ alone 1.3 log2)) was 0.4 log2.
